Assay [1] has as its target T1, TOPLESS (TPL), yeast two-hybrid fusion (Arabidopsis thaliana (accession Col-0)) (UniProt Q94AI7).
T1 sequence: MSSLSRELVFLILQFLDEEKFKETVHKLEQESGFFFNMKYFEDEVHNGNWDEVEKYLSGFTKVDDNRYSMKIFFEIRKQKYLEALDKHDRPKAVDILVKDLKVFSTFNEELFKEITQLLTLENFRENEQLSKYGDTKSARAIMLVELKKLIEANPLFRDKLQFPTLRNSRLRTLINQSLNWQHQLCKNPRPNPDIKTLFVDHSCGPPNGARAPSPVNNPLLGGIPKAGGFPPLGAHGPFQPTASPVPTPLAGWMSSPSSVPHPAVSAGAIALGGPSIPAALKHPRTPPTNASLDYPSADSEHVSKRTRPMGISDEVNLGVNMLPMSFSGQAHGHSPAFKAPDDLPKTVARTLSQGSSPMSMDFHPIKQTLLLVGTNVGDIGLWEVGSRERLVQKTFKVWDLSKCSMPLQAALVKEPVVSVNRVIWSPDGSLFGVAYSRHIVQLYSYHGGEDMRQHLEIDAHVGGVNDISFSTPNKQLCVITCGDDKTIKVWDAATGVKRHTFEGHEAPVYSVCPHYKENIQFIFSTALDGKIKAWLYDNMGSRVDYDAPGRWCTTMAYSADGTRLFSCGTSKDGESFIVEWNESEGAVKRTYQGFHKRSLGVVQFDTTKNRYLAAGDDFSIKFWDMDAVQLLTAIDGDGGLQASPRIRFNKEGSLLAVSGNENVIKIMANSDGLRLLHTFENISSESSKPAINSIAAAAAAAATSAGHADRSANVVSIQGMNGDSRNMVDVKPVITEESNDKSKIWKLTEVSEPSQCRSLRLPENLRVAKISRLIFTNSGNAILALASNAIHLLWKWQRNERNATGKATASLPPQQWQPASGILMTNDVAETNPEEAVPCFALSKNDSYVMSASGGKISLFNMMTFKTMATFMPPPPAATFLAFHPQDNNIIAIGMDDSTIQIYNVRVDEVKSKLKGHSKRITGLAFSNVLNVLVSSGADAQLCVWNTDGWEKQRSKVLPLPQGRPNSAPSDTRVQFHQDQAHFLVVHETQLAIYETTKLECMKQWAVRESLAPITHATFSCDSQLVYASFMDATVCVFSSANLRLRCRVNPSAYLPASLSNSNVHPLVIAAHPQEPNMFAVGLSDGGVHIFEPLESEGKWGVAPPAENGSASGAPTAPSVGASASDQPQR
As to the kind of experiment: two-hybrid; Clontech Matchmaker system, yeast strain AH109; vectors derived from pGADT7 and pGBKT7; selective SD-Leu-Trp-His or SD-Leu-Trp-His-Ade media.

Assay [2] concerns the target bHLH017/JA-ASSOCIATED MYC2-LIKE 1 (JAM1), yeast two-hybrid fusion (Arabidopsis thaliana (accession Col-0)). The assay is described as above.
The target of assay [3] is JAZ5 with C-terminal YFP tag (Arabidopsis thaliana (accession Col-0)). The assay can be described thus: co-IP; transient expression in N. benthamiana leaves, harvested 2 d post-inoculation; total protein extracts incubated with GFP-affinity matrix (Chromotek); immunoblots with anti-GFP and anti-c-Myc.
For assay [4], the target named is JAZ7 with C-terminal YFP tag (Arabidopsis thaliana (accession Col-0)). The assay is described as above.

Results are given in words; binding and its absence hold for the method and conditions named. A result given as binding can be weak or reduced; the word gives no strength. Sequences can lack the tags named with a protein. For part of these data: Binding seen in cells or lysates may run through a third protein.

In the case of “JAZ7 (JASMONATE ZIM-domain protein 7), yeast two-hybrid fusion (Arabidopsis thaliana (accession Col-0))”, the binding entry in assay [1] is “binds”. Regarding “JAZ7mEAR (JAZ7 with a mutated EAR motif), yeast two-hybrid fusion (Arabidopsis thaliana (accession Col-0))”, in assay [1], the binding result is on record as “no binding”. The same measure, in the same setting: the same measure for “JAZ5, yeast two-hybrid fusion (Arabidopsis thaliana (accession Col-0))”: “binds”.

B1: JAZ8, yeast two-hybrid fusion (protein, UniProt Q8LBM2 1-131)
chain: MKLQQNCDLELRLFPTSYDSDSSDTTSVVESTSSGNPQPNEESQRITIFYNGKMCFSSDVTHLQARSIISIASREMKTKSSSNGSDPPNKSTSFHHNQLPNPKASMKKSLQSFLQKRKIRIQATSPYHSRR
In the case of B1, the binding result in assay [2] is on record as “binds”.

B2: TOPLESS (TPL) with C-terminal 4xMyc tag (protein, UniProt Q94AI7 1-1131)
chain: MSSLSRELVFLILQFLDEEKFKETVHKLEQESGFFFNMKYFEDEVHNGNWDEVEKYLSGFTKVDDNRYSMKIFFEIRKQKYLEALDKHDRPKAVDILVKDLKVFSTFNEELFKEITQLLTLENFRENEQLSKYGDTKSARAIMLVELKKLIEANPLFRDKLQFPTLRNSRLRTLINQSLNWQHQLCKNPRPNPDIKTLFVDHSCGPPNGARAPSPVNNPLLGGIPKAGGFPPLGAHGPFQPTASPVPTPLAGWMSSPSSVPHPAVSAGAIALGGPSIPAALKHPRTPPTNASLDYPSADSEHVSKRTRPMGISDEVNLGVNMLPMSFSGQAHGHSPAFKAPDDLPKTVARTLSQGSSPMSMDFHPIKQTLLLVGTNVGDIGLWEVGSRERLVQKTFKVWDLSKCSMPLQAALVKEPVVSVNRVIWSPDGSLFGVAYSRHIVQLYSYHGGEDMRQHLEIDAHVGGVNDISFSTPNKQLCVITCGDDKTIKVWDAATGVKRHTFEGHEAPVYSVCPHYKENIQFIFSTALDGKIKAWLYDNMGSRVDYDAPGRWCTTMAYSADGTRLFSCGTSKDGESFIVEWNESEGAVKRTYQGFHKRSLGVVQFDTTKNRYLAAGDDFSIKFWDMDAVQLLTAIDGDGGLQASPRIRFNKEGSLLAVSGNENVIKIMANSDGLRLLHTFENISSESSKPAINSIAAAAAAAATSAGHADRSANVVSIQGMNGDSRNMVDVKPVITEESNDKSKIWKLTEVSEPSQCRSLRLPENLRVAKISRLIFTNSGNAILALASNAIHLLWKWQRNERNATGKATASLPPQQWQPASGILMTNDVAETNPEEAVPCFALSKNDSYVMSASGGKISLFNMMTFKTMATFMPPPPAATFLAFHPQDNNIIAIGMDDSTIQIYNVRVDEVKSKLKGHSKRITGLAFSNVLNVLVSSGADAQLCVWNTDGWEKQRSKVLPLPQGRPNSAPSDTRVQFHQDQAHFLVVHETQLAIYETTKLECMKQWAVRESLAPITHATFSCDSQLVYASFMDATVCVFSSANLRLRCRVNPSAYLPASLSNSNVHPLVIAAHPQEPNMFAVGLSDGGVHIFEPLESEGKWGVAPPAENGSASGAPTAPSVGASASDQPQR
For the molecule B2, the binding result in assay [3] and in assay [4] was “binds” throughout.

For the origin of these results see publication PMC4809290.
